Source: article PMC10191332
Results are given in words; binding and its absence hold for the method and conditions named. In cells and extracts the contact can be indirect.

The chains behind the UniProt entries cited, without tags or fusion partners. Residues count along the entry.
UniProt P06473, residues 32-906: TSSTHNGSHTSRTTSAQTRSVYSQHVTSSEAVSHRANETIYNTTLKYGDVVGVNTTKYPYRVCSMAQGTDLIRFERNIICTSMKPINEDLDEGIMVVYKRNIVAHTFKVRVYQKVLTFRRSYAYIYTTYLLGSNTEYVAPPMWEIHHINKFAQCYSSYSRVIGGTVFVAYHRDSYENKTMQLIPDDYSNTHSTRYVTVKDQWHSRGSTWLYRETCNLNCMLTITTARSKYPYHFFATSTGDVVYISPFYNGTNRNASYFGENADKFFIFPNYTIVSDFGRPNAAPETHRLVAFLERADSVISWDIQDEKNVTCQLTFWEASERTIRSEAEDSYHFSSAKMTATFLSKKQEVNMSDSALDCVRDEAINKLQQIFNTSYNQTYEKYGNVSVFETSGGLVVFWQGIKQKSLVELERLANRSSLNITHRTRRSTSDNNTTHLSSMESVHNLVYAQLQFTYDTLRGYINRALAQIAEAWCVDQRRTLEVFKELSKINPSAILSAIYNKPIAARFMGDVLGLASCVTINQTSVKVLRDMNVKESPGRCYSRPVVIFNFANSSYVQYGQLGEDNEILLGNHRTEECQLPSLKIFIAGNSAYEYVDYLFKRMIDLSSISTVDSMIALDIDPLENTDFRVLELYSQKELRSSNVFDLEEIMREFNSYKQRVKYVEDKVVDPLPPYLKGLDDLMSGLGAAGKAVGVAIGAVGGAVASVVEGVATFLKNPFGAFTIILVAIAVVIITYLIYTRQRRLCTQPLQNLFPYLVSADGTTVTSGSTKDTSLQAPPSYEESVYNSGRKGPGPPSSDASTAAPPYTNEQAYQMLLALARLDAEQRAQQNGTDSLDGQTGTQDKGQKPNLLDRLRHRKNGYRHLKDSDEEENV
UniProt P29317, residues 24-976: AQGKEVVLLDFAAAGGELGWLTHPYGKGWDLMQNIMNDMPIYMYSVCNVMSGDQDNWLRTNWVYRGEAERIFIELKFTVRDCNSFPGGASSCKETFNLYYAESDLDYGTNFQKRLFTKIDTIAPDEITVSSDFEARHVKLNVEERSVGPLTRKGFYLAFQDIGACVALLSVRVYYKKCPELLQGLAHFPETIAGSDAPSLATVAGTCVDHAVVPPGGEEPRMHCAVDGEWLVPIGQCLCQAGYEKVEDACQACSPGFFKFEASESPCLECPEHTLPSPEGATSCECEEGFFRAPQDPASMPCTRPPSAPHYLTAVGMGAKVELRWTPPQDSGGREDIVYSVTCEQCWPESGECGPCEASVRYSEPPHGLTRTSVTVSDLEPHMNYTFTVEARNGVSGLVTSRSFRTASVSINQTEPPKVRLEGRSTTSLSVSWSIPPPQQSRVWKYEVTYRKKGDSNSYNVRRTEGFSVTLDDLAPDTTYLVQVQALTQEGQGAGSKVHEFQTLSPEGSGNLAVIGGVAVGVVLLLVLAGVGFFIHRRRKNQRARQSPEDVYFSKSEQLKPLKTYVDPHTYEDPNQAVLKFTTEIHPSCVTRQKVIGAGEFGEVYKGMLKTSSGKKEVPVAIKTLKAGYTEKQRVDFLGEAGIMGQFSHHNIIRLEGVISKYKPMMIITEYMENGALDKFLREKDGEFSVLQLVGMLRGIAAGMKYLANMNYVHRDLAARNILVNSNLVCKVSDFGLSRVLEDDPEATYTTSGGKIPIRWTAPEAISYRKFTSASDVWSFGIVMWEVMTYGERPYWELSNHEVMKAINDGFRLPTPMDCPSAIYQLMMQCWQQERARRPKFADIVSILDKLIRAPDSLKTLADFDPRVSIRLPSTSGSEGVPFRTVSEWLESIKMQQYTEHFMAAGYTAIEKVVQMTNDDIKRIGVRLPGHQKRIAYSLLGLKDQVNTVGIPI

Biological target: Flag-tagged HCMV gB (HCMV) (UniProt P06473)
Test: co-IP

Substance: Myc-tagged EphA2 (from UniProt P29317 24-976) (receptor)
- binding: no binding
